These are yes or no findings as the source states them, for the method shown. For some of these results: In cells and extracts the contact can be indirect. Some results given as binding are weak or reduced against the parent protein; the word gives no strength. For some of these results: Sequences can lack the tags named with a protein. Each block holds one substance with its values, some of them ahead of it.
Columns and labels:
[1] = molecular target: Neuronal leucine-rich repeat 1 tagged with HA (NLRR1-HA), expressed in HEK293 cells (human) (UniProt Q6UXK5); test: co-IP; HEK293 cells transiently co-expressing NLRR1-HA and ALK (WT, F1174L or R1275Q); CHAPS lysis, IP buffer with 150 mM NaCl and 1% Nonidet P-40, 4 °C, protein A agarose; western blotting; also after 5 μg/ml tunicamycin for 8 hours
[2] = molecular target: Intact extracellular domain of NLRR1 conjugated with human IgG1 Fc (exN1-Fc) (human) (UniProt Q6UXK5); test: pull-down; NB-39-nu cells incubated 1 hour at 37 °C in conditioned medium with Fc chimeras from HEK293 cells; washed, lysed in CHAPS buffer, 1 mg reacted with protein A agarose in IP buffer overnight at 4 °C; western blotting
[3] = molecular target: T1, ΔL-Ig-Fc, NLRR1 FNIII domain alone conjugated with human IgG1 Fc (human) (UniProt Q6UXK5); test: as above
T1 sequence: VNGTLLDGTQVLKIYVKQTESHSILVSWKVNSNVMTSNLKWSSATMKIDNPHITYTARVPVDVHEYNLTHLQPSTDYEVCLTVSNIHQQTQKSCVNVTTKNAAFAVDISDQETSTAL

The chains behind the UniProt entries cited, without tags or fusion partners. Where a name states a change or a piece, a line headed by the entry shows the natural chain unless it says otherwise. A line that says so, or that is headed by a name, gives the form on record, which may keep a tag or linker. Residues count along the entry.
Anaplastic lymphoma kinase, wild type (WT ALK), expressed in Cos7 cells (Q9UM73, residues 19-1620): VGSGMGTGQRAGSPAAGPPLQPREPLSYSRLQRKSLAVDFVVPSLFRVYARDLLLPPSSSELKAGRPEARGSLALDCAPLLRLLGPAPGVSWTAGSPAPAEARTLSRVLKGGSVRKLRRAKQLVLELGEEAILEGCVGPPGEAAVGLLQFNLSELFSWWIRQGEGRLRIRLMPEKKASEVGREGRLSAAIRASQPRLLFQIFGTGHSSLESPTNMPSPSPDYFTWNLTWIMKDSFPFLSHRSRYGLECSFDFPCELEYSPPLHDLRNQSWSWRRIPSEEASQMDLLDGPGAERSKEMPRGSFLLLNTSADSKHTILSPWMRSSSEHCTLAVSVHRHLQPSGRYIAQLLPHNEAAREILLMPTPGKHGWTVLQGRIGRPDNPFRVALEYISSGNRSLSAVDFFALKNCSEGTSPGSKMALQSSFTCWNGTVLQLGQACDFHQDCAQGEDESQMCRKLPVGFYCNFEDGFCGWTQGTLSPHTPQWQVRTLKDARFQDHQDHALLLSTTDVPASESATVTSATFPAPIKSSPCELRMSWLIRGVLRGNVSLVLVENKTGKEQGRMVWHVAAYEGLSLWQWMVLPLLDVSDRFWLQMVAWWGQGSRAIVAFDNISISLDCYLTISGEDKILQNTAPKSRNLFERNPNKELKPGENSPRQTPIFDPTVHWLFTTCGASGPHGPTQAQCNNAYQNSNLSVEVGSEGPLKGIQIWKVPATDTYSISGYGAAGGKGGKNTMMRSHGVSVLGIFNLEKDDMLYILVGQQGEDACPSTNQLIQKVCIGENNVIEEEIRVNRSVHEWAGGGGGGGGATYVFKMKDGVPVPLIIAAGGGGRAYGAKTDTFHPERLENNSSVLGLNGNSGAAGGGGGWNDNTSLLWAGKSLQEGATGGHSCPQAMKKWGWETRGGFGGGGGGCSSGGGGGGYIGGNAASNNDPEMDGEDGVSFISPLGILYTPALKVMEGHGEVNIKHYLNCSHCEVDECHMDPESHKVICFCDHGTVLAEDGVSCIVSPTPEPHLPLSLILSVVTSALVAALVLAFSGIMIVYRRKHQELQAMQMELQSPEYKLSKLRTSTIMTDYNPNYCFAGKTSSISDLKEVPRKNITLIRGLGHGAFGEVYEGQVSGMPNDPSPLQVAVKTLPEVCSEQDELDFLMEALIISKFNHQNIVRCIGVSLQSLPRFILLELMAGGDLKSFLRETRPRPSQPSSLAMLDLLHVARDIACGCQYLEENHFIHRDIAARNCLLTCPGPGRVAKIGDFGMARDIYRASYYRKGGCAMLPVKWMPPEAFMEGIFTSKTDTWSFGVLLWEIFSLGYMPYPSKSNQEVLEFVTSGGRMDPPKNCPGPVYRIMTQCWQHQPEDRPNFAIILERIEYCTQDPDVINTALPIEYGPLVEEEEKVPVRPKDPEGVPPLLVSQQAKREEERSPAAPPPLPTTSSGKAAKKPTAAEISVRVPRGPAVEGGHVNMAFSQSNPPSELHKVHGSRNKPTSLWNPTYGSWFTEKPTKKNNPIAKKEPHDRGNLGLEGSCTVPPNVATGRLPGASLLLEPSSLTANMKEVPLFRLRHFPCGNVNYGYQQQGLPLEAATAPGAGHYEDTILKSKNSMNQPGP
Anaplastic lymphoma kinase (ALK) F1174L, endogenous in SMS-SAN cells (Q9UM73, form named): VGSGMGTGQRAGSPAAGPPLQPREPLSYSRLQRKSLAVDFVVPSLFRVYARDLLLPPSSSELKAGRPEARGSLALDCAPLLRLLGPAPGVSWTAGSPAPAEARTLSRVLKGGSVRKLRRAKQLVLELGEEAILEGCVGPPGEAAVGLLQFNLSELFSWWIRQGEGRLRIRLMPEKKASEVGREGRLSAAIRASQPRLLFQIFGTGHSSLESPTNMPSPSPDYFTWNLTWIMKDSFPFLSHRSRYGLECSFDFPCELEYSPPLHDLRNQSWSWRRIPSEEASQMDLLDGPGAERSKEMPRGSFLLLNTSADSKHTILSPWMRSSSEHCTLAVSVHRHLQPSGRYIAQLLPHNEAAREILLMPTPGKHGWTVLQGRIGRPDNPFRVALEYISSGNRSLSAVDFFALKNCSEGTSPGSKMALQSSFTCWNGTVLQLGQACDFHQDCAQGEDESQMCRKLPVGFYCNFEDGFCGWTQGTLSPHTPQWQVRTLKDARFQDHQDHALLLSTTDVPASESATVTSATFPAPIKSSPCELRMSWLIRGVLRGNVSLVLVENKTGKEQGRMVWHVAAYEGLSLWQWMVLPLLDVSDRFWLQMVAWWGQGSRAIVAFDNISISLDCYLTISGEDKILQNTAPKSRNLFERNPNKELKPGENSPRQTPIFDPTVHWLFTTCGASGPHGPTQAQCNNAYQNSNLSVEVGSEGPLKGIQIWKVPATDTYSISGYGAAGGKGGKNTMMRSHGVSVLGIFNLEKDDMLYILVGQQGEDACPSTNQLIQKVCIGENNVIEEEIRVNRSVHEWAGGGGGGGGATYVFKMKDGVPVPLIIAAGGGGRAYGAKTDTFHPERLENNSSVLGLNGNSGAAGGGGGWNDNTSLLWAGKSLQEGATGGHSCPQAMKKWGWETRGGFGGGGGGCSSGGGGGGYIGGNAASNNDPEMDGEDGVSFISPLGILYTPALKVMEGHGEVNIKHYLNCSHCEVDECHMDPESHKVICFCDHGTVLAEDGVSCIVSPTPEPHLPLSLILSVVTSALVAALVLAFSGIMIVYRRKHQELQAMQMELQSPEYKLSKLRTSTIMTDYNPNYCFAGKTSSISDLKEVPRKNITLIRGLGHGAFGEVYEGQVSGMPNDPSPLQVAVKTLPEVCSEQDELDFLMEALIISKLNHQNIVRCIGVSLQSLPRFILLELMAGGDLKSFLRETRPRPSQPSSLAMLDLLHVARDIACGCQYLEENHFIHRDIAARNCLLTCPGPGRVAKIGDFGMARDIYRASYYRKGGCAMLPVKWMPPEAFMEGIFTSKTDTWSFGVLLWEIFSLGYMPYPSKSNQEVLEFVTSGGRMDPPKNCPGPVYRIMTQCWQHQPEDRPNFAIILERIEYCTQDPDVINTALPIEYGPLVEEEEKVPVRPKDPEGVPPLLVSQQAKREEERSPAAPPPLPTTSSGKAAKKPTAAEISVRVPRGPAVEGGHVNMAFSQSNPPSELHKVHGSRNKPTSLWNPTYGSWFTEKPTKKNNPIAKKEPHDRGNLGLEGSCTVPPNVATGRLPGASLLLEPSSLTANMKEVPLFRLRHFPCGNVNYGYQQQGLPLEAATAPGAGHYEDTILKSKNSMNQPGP
Anaplastic lymphoma kinase R1275Q, expressed in HEK293 cells (Q9UM73, form named): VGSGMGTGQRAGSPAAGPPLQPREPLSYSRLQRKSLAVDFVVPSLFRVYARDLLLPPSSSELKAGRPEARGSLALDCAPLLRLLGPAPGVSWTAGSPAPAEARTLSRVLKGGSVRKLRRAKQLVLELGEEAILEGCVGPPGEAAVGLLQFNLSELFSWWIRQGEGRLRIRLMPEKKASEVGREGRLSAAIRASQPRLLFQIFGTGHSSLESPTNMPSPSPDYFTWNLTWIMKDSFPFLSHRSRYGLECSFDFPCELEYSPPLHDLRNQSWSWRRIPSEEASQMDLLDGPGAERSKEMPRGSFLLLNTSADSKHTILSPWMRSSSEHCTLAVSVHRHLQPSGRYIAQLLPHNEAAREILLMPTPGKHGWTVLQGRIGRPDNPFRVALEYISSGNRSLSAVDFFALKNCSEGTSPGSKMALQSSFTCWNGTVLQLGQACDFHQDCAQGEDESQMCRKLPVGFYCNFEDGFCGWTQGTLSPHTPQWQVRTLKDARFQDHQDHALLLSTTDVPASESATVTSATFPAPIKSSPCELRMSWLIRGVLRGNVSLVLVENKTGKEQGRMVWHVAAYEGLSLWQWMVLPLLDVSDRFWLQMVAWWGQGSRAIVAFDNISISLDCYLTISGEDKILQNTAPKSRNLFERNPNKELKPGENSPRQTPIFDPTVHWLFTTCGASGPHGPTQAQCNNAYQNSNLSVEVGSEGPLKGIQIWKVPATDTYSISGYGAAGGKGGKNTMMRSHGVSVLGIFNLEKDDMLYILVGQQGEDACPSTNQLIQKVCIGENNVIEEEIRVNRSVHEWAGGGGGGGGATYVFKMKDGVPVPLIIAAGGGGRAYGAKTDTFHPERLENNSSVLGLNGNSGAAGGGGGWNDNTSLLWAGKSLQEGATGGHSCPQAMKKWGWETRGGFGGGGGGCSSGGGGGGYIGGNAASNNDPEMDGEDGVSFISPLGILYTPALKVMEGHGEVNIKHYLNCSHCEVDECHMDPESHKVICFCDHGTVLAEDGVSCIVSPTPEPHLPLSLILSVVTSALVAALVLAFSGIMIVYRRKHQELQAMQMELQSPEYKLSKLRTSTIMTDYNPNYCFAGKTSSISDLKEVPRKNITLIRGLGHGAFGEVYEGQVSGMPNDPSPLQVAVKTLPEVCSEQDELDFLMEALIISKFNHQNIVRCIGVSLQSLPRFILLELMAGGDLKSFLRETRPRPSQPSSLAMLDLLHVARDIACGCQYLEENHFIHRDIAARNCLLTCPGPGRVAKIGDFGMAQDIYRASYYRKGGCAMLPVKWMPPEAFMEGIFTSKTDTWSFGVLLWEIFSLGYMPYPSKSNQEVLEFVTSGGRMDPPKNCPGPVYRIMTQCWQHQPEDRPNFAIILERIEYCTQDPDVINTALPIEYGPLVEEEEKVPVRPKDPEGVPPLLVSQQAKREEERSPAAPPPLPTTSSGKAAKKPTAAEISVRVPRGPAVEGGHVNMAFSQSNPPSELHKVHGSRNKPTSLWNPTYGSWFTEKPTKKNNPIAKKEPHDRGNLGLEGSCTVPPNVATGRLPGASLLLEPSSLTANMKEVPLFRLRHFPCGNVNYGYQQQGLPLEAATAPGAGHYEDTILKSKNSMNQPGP

[4] = molecular target: T2, ΔLRR-Fc, NLRR1 ectodomain without the LRR domain (Ig-like and FNIII domains) conjugated with human IgG1 Fc (human) (UniProt Q6UXK5); test: as above
T2 sequence: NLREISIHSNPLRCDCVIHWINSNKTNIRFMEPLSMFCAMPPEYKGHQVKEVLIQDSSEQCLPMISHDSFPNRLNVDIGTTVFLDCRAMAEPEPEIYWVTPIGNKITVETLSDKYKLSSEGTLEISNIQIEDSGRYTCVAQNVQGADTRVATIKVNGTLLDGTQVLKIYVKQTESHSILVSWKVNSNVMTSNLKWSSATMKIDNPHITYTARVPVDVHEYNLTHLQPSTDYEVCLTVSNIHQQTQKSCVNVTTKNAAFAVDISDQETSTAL

[5] = molecular target: Neuronal leucine-rich repeat 1 (NLRR1), endogenous in CHP134 and SMS-SAN cells (human (endogenous in CHP134 and SMS-SAN)) (UniProt Q6UXK5); test: co-IP; endogenous proteins in CHP134 and SMS-SAN cells; CHAPS lysis, IP buffer, 4 °C, protein A agarose; normal rabbit IgG as negative control; western blotting
[6] = molecular target: Neuronal leucine-rich repeat 1 tagged with HA (NLRR1-HA), expressed in Cos7 cells (human) (UniProt Q6UXK5); test: co-IP; Cos7 cells transfected with either NLRR1-HA or ALK, co-cultured at the same density for 24 hours; immunoprecipitation with a 3,3'-dithiobis(sulfosuccinimidyl propionate) cross-linking reaction
[7] = molecular target: Anaplastic lymphoma kinase, wild type (WT ALK), expressed in Cos7 cells (human) (UniProt Q9UM73); test: alkaline phosphatase fusion binding to cells; transfected Cos7 cells incubated 1 hour at room temperature in ultrafiltrated medium from HEK293 cells transfected with exN1-AP; after washing and lysis AP activity in the lysates, standardised to the control

Substance: Anaplastic lymphoma kinase F1174L, expressed in HEK293 cells (from UniProt Q9UM73 19-1620) (receptor)
binding [1]: binds

Substance: Anaplastic lymphoma kinase (ALK), endogenous in NB-39-nu cells (from UniProt Q9UM73 19-1620) (receptor)
binding [2]: binds
binding [3]: binds
binding [4]: binds

Substance: Anaplastic lymphoma kinase, wild type (WT ALK), expressed in HEK293 cells (from UniProt Q9UM73 19-1620) (receptor)
binding [1]: binds

Substance: Anaplastic lymphoma kinase (ALK), endogenous in CHP134 cells (from UniProt Q9UM73 19-1620) (receptor)
binding [5]: binds

Substance: Anaplastic lymphoma kinase, wild type (WT ALK), expressed in Cos7 cells (from UniProt Q9UM73 19-1620) (receptor)
binding [6]: binds

Results, then the substance that gave them:

binding [5]: binds
Substance: Anaplastic lymphoma kinase (ALK) F1174L, endogenous in SMS-SAN cells (from UniProt Q9UM73 19-1620) (receptor)

binding [1]: binds
Substance: Anaplastic lymphoma kinase R1275Q, expressed in HEK293 cells (from UniProt Q9UM73 19-1620) (receptor)

binding [7]: binds
Substance: Intact extracellular domain of NLRR1 fused with human placental alkaline phosphatase (exN1-AP) (from UniProt Q6UXK5 26-632) (domain or fragment)
